# Reference: PubChem BioAssay AID1347423 (Functional Genomics Laboratory (NCATS/FGL), 2020)
# Out of some 52,000 sequences screened, about 210 (0.4%) were called active.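 How the source made its calls: active means gene whose silencing raises cell survival under the drug, median off-target-corrected z-score across its silencing RNAs 2 or more; inactive means the rest.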 The list shows a part of the results.
# Assay: Resistance to Poly (ADP-Ribose) Polymerase inhibitor: Gene Identification via Genome-wide siRNA Screen
# Conditions: mouse BRCA2 R2336H ES cells, olaparib, CellTiter-Glo viability; active compounds read high
# How it was run: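 Mouse BRCA2 R2336H ES cells were reverse-transfected with siRNA (20 nM final), treated at 48 h with 500 nM olaparib, and read by CellTiter-Glo after 72 h. Scores: MAD-based z per siRNA, median per gene, seed off-target correction.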
row,Sequence,z-score
1,CCACUCAAGAUCGAUACCUTT against Fgd1,inactive: -0.28
2,GCCUAAGCCUACCAAACGATT against C77668,inactive: -1.19
3,GGUUUUAAAGAAGACGGUATT against 1110004E09Rik,inactive: -2.08
4,GCGAUCGAUGUCGUACUCUTT against 2610207I05Rik,inactive: 1.42
5,GGAGACGAGAAACAAACCCTT against Diap2,inactive: 0.952
6,GCGGUUAGCACAAUGUGAATT against Ppp2cb,inactive: -0.0473
7,GCCCAUUAUGCAAGAAUAATT against Gsbs,inactive: -2.28
8,GGGACUUUGGGAAGUGAUGTT against 2700023J09Rik,inactive: -1.05
9,GGAUUGUGAUUUUCAUUGATT against P2y5,inactive: -0.597
10,GCUGAAGUUCGUACCCUACTT against Osbp2,inactive: -0.533
11,GCUUUUAUUGGCCACCCUGTT against BC026996,inactive: 0.0955
12,GGGAAAACCCUUUAUUCAGTT against Tmod4,inactive: 0.627
13,GGAAGCCUAGUUUUUUUAATT against Csnk2a1,inactive: 0.629
14,GGGUAUAUUUCCUUCCAGCTT against 6330411N01Rik,inactive: 1.48
15,GGCUCUUUGCGAAAAUGGATT against Rnaseh2a,inactive: -0.522
16,GGUGCAUAUGAGGUAUAUUTT against Nt5e,inactive: -0.321
17,GGGUGAGCAGUACAUUCAATT against BC026778,inactive: -0.364
18,CCUGACUUGCCAUGUAAACTT against F830045P16Rik,inactive: 0.556
19,GGGACGAUGUCACUAUUAATT against Myrip,inactive: -1.14
20,GGAGUUCCUAUGAUCAAAUTT against 1700023O11Rik,inactive: 0.876
21,GGAUGCAGAAGCAACUUAATT against AA986860,inactive: -0.959
22,GACUUUUCAGGCAUACCUATT against E130113K08Rik,inactive: 1.71
23,CCAUGGUUGCCAUAUAUUUTT against Pex19,inactive: 0.785
24,CCUCCUUCACCAACUUAAATT against Rab33a,inactive: 2.4
25,GGAGAGAACAUUAAAGAUATT against Mtmr2,inactive: -0.0856
26,GGUAACAUGGUUUUAACAGTT against C030003D03Rik,inactive: -0.108

row,Sequence,z-score
1,GGUUAUAUGGACCCUAAAATT against Agtrl1,inactive: -1.75
2,GGCUCUUUGAUCACCAUUGTT against 4933403F05Rik,inactive: -0.894
3,GGUACAAAGUGAAAUAGCUTT against Rnf34,inactive: 0.213
4,GCAGGAGUCAAAUUUUCUATT against BC030440,inactive: 1.06
5,GGUAUCAGCUUCAGUAGCCTT against BC030314,inactive: -0.453
6,GGACAUUUCUGACAAAAAGTT against Cab39,inactive: -0.985
7,GGAUAAGAAAACUGAAGAATT against Tex16,inactive: -1.23
8,GGAAGAAUUAAUGAAUACCTT against Ncoa1,inactive: -0.194
9,GGAGUGUGGAAUUUAAUACTT against Cstf2t,inactive: 0.162
10,GGCAGUUGAAUUGUUUGAGTT against Dact1,inactive: 0.618
11,GCUCUACGAAAAGAAAAUCTT against Emd,inactive: 0.159
12,CCUUAUGAUCCCAACUUUUTT against Hnrpk,inactive: -2.36
13,CCUGCUCAUCAUUCUUCUCTT against Olfr50,inactive: -0.459
14,GCAACAUAUCGGCAGAUGATT against Cpsf3,inactive: -1.53
15,GGACAUUCAUUCACCUUAUTT against 2610209A20Rik,inactive: -1.48
16,GGAUUUCUUUGUGGAGCCCTT against A930010I02,inactive: -1.22
17,GCAAGUGUUAGAACACAAGTT against Cish,inactive: -0.299
18,GCUCGUAGCUUUCAACAAATT against Nope,inactive: 0.489
19,GGAGAAGUGAUUAAAAUCATT against E430004N04Rik,inactive: -0.648
20,CCUCCUCUAUCAAGACAUUTT against Txnl4b,inactive: 0.394
21,CGCAAAGAGGUAAAUGAUCTT against Rps6ka6,inactive: -0.256
22,CCUUUGGUAGAGACCUUUUTT against Statip1,inactive: -1.7
23,GCAGUCCUCAGUCGAGAAATT against Aqp9,inactive: 0.171
24,GGCAAGUCUUUAAAAGUCCTT against Xrcc2,inactive: -0.442
25,CCAUACUGUUAUAGUGGUGTT against Olfr25,inactive: -0.325
26,GGAAAAAGUGCAUUUAUGUTT against Fnbp3,inactive: -2.43

# 3 entries drawn at random from those above:
row,Sequence,z-score
26,GGAAAAAGUGCAUUUAUGUTT against Fnbp3,inactive: -2.43
9,GGAUUGUGAUUUUCAUUGATT against P2y5,inactive: -0.597
18,GCUCGUAGCUUUCAACAAATT against Nope,inactive: 0.489
